Literature values, collected in patent US11130726B2, “Therapeutic compounds and methods of use thereof” (GENENTECH, INC., priority 2015, dated 2021).

Settings: administered topically (Lidoderm patch); cited from earlier work

Question: With `CCN(CC)CC(=O)Nc1c(C)cccc1C` [lidocaine] as the compound, how does the plasma concentrations read?
Answer: The plasma concentrations was “about 1 μM”.
